Structures can show the parent of a compound that is named as a salt. The list shows a part of the results. Many values rest on one well or one pass, so single values are uncertain.
System: Reh
Test: S-phase gammaH2AX median, Z-score vs plate median (drug alone); higher = more S-phase DNA damage
Conditions: MK1775 concentration 0 nM; 10 µM; 4 h

| Compound | S-phase gammaH2AX median (Z-score) |
| --- | --- |
| CCCC(C(=O)OCCN(CC)CC)(c1ccccc1)c1ccccc1 [SKF-525A hydrochloride] | -0.123 |
| COc1cc(CC(=O)O)ccc1O [4-Hydroxy-3-methoxyphenylacetic acid] | -0.18 |
| Clc1ccccc1C(c1ccccc1)(c1ccccc1)n1ccnc1 [Clotrimazole] | -0.0757 |
| NC(=O)NO [Hydroxyurea] | -0.142 |
| Cc1c(CC(C)(C)C(=O)O)n(Cc2ccc(Cl)cc2)c2ccc(F)cc12 | 0.201 |
| CN(C)C(=O)N=NC(=O)N(C)C [N,N,N',N'-Tetramethylazodicarboxamide] | -0.00945 |
| CC(=O)OC(C)C[N+](C)(C)C (stereo not drawn) [Acetyl-beta-methylcholine chloride] | 0.0175 |
| C=CCc1ccccc1OCC(O)CNC(C)C (stereo not drawn) [Alprenolol hydrochloride] | -0.00971 |
| Cc1nc(N=Nc2ccc(S(=O)(=O)O)cc2S(=O)(=O)O)c(COP(=O)(O)O)c(C=O)c1O | 0 |
| CCCCC[C@H](CC(=O)NO)C(=O)N[C@H](C(=O)N1CCC[C@H]1CO)C(C)C [Actinonin] | 0.0408 |
| CN(C)CCC(c1ccccc1)c1ccccn1 (stereo not drawn) [Pheniramine maleate] | -0.00473 |
| COC1=C(OC)C(=O)c2ccccc2C1=O [2,3-Dimethoxy-1,4-naphthoquinone] | -0.0661 |
| CCOc1ccc(Cc2cc([C@@H]3O[C@H](CO)[C@@H](O)[C@H](O)[C@H]3O)ccc2Cl)cc1 [Dapagliflozin] | 0.0445 |
| CC(C)NCC(O)COc1cccc2ccccc12 (stereo not drawn) [(?)-Propranolol hydrochloride] | -0.0378 |
| Oc1c2ccccc2c2c3c(cccc13)N=N2 | 0.0252 |
| C=C(C)[C@@H]1CC=C(C(=O)O)CC1 [(-)-Perillic acid] | -0.0473 |
| COC(=O)[C@@H]1[C@H]2C[C@H]3c4[nH]c5ccccc5c4CCN3C[C@@H]2CC[C@@H]1O [Yohimbine hydrochloride] | 0.3 |
| CC(C)C[C@H](NC(=O)[C@H]1O[C@@H]1C(=O)O)C(=O)NCCCCN=C(N)N | -0.0945 |
| CN(C)Cc1ccc(-c2nc3cccc4c3n2CCNC4=O)cc1 | 0.194 |
| Cc1[nH]c(/C=C2\C(=O)Nc3ccc(S(=O)(=O)N(C)c4cccc(Cl)c4)cc32)c(C)c1C(=O)N1CCN(C)CC1 | 0.000387 |
| CC1(C)NC(=O)N(c2ccc([N+](=O)[O-])c(C(F)(F)F)c2)C1=O [Nilutamide] | -0.168 |
| N#C/C(=C/c1ccc(O)c(O)c1)C(=O)N1CCc2ccccc21 [Tyrphostin AG 528] | 0.327 |
| O=C1CCc2cc(OCCCCc3nnnn3C3CCCCC3)ccc2N1 [Cilostazol] | -0.0388 |

2 records drawn at random from those above, as already listed:

| Compound | S-phase gammaH2AX median (Z-score) |
| --- | --- |
| Clc1ccccc1C(c1ccccc1)(c1ccccc1)n1ccnc1 [Clotrimazole] | -0.0757 |
| CC(C)NCC(O)COc1cccc2ccccc12 (stereo not drawn) [(?)-Propranolol hydrochloride] | -0.0378 |

— the supplement of paper PMC5355238
